Assay results reported in publication PMC11317515.
Results are given in words; binding and its absence hold for the method and conditions named. Binding can be weak; no strength is given. For some of these results: Tags and fused reporters may be left off the sequences shown. For some of these results: Binding seen in cells or lysates may run through a third protein. One block for each molecule: values may come before it.

Protein sequences, listed by entry. Tags and fused reporters are not part of them. Lines headed by an entry give the natural chain unless they say otherwise; changes in a name come on top.
UniProt P02566: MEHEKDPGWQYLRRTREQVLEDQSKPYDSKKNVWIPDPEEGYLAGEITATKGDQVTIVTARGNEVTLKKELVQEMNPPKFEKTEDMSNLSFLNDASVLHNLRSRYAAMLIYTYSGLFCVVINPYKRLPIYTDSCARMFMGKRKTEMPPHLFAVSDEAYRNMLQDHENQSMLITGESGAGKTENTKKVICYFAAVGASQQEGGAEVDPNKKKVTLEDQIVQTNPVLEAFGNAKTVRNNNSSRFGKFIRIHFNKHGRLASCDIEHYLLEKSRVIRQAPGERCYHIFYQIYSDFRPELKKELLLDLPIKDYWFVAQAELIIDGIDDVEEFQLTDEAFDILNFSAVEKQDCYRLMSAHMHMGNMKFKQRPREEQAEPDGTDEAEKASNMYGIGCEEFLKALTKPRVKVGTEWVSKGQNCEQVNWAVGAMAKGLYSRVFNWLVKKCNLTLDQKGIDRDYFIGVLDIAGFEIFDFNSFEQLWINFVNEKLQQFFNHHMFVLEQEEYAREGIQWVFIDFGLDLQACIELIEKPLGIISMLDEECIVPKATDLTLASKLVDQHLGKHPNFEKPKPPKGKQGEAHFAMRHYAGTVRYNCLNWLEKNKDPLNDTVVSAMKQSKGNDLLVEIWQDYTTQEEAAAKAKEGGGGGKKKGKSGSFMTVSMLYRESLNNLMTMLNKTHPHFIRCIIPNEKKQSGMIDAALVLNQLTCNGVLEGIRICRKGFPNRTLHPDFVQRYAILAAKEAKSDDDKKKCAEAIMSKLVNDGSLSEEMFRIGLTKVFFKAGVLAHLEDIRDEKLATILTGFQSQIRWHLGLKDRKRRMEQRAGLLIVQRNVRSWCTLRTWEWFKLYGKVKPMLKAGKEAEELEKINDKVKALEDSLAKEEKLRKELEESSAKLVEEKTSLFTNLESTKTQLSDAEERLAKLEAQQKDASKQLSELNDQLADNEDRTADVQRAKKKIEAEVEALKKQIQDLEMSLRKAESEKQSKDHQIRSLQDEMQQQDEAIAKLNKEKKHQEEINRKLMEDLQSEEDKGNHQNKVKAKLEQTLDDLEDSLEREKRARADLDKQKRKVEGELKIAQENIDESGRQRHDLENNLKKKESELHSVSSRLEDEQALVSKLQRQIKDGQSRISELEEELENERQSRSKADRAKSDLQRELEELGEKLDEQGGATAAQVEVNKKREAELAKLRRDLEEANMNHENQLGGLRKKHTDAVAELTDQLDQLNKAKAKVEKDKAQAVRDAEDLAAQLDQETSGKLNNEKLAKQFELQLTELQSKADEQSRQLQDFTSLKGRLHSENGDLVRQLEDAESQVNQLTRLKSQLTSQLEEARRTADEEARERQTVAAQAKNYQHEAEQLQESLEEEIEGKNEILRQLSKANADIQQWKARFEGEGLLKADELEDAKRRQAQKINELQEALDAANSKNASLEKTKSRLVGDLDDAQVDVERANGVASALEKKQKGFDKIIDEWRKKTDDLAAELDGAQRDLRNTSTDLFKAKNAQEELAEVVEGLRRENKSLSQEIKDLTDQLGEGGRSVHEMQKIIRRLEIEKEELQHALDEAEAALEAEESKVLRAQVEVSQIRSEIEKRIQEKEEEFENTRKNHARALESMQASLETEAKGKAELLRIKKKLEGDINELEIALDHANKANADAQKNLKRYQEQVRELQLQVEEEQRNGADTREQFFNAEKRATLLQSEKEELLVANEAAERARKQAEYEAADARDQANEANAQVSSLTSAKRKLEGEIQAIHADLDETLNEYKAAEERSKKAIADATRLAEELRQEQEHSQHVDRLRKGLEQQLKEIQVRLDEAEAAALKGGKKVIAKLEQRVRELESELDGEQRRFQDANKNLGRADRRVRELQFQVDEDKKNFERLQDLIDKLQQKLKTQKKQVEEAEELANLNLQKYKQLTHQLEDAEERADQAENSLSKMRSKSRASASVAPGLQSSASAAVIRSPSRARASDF
UniProt O16266: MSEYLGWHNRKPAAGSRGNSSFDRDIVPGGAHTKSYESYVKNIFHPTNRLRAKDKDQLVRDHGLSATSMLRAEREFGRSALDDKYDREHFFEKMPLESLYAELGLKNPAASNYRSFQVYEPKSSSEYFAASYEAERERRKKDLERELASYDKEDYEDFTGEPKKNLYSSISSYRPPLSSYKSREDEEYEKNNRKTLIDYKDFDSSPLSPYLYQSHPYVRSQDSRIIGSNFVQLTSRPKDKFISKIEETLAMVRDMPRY

Columns and labels:
[1] = molecular target: UNC-54 (myosin heavy chain B, MHC B) (C. elegans) (UniProt P02566); assay: co-IP; UNC-54/MHC B antibody, from lysates of transgenic worms with FLAG-NHL-1 and HA-F40A3.6, done as the FLAG co-immunoprecipitation; western blot
FLAG-NHL-1 (C. elegans) = molecular target: T1, FLAG-NHL-1 (C. elegans) (UniProt Q03601); assay: co-IP; anti-FLAG (M2) and Dynabeads Protein A from lysates (NP40 lysis buffer, diluted in PBS with 0.02% Tween-20, 4 °C) of transgenic worms with FLAG-NHL-1 and HA-F40A3.6 in wild-type or unc-54(e1301) background, 25 °C for 24 h before collection; western blot
T1 sequence: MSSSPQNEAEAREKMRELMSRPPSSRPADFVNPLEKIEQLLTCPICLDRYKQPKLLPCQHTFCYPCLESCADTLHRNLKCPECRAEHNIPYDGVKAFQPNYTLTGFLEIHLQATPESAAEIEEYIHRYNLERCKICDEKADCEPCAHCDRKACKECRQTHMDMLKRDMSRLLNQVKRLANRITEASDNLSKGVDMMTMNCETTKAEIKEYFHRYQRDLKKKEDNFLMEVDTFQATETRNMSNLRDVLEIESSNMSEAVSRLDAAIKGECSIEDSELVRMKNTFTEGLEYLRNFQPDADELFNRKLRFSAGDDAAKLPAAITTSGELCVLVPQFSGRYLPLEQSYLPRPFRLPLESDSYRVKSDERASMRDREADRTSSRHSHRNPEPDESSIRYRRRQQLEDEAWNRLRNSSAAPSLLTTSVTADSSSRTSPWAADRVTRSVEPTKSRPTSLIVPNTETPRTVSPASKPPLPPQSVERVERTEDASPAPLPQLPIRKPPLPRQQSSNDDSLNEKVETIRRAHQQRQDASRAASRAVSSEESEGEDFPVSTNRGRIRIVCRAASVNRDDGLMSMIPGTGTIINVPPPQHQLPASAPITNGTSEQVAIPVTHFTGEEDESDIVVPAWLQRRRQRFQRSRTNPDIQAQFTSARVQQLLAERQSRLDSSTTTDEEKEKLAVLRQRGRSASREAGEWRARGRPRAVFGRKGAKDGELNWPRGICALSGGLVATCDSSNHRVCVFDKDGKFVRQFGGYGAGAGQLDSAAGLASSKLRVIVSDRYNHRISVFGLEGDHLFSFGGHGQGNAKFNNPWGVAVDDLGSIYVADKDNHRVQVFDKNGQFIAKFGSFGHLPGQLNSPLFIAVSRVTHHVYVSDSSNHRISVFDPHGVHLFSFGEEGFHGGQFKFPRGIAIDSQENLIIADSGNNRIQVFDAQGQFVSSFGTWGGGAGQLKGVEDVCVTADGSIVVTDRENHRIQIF

[2] = molecular target: T2, UNC-45 (endogenous) (C. elegans) (UniProt G5EG62); assay: co-IP; UNC-45 antibody, from worm lysates (transgenic worms with FLAG-NHL-1 and HA-F40A3.6; unc-45 mutants), done as the FLAG co-immunoprecipitation; western blot
T2 sequence: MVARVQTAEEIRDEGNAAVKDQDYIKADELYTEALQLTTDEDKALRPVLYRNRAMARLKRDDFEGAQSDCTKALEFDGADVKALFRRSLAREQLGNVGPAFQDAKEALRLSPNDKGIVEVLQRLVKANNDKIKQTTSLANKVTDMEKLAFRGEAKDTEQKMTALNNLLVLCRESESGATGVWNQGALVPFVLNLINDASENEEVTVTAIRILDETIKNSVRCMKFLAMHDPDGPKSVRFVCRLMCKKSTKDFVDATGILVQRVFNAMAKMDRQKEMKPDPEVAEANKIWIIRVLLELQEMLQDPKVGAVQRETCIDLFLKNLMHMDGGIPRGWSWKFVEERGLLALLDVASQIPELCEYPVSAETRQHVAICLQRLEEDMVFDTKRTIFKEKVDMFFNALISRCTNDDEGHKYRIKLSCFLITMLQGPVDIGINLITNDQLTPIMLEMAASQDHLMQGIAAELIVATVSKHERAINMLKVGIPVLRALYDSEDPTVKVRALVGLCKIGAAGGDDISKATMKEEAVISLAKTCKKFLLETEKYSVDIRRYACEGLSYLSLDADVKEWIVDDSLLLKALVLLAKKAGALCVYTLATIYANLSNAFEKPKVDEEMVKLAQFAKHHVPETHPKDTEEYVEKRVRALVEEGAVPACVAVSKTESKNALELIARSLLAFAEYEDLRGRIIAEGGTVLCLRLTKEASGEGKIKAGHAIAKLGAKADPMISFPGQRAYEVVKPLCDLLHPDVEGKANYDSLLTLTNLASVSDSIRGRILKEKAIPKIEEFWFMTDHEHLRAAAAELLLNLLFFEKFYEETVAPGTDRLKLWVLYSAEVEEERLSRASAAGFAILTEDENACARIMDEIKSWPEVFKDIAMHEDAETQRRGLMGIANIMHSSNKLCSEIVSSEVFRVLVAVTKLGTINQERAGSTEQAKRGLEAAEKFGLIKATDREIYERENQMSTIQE

[3] = molecular target: F40A3.6 (GAL4 two-hybrid fusion) (C. elegans); assay: two-hybrid; Matchmaker GAL4 yeast two-hybrid system 3, AH109 yeast, AD and BD fusions in varying combinations, growth on SD/-Leu/-Trp/-His at 30 °C for 4-5 days

binding [1]: binds
binding (FLAG-NHL-1 (C. elegans)): binds
binding [2]: binds
Molecule: HA-F40A3.6 (from UniProt O16266)

binding [3]: binds
B1: UNC-45 (GAL4 two-hybrid fusion) (protein, UniProt G5EG62 1-961)
chain: T2 sequence
